The values that follow come from patent US20030061635A1, “Pollen-specific novel calmodulin-binding protein, NPG1 (No Pollen Germination1), promoter, coding sequences and methods for using the same” (priority 2001, published 2003).

These are yes or no findings as the source states them, for the method shown. Some entries that bind do so weakly or less than the wild type.

The assay concerns the target Arabidopsis thaliana CaM isoform 2 (Arabidopsis thaliana) (UniProt P0DH97). Nature of the assay: HRP-CaM (Arabidopsis CaM2) blot overlay.

B1: Arabidopsis KCBP 1.5C (bacterially expressed carboxyl-terminal region of kinesin-like calmodulin binding protein) (protein, UniProt Q9FHN8 821-1260, looked up)
chain: SDMLLLQNNLKELEELREMKEDIDRKNEQTAAILKMQGAQLAELEILYKEEQVLRKRYYNTIEDMKGKIRVYCRIRPLNEKESSEREKQMLTTVDEFTVEHPWKDDKRKQHIYDRVFDMRASQDDIFEDTKYLVQSAVDGYNVCIFAYGQTGSGKTFTIYGHESNPGLTPRATKELFNILKRDSKRFSFSLKAYMVELYQDTLVDLLLPKSARRLKLEIKKDSKGMVFVENVTTIPISTLEELRMILERGSERRHVSGTNMNEESSRSHLILSVVIESIDLQTQSAARGKLSFVDLAGSERVKKSGSAGCQLKEAQSINKSLSALGDVIGALSSGNQHIPYRNHKLTMLMSDSLGGNAKTLMFVNVSPAESNLDETYNSLLYASRVRTIVNDPSKHISSKEMVRLKKLVAYWKEQAGKKGEEEDLVDIEEDRTRKDEADS
Turning to B1, the binding result is “binds”.
